End groups of sequences in plain letters are not given here.

This series in a line: general procedure: Fmoc solid-phase peptide synthesis; Rink Amide LL resin (100–200 mesh), 0.29 mmol/g; DIC / OxymaPure. Particulars: whole synthesis; for isolated yield: scale of the general procedure 0.116 mmol (400 mg of resin).

Substance KKLLKLLKLLL had an isolated mass of 84.0 mg and an isolated yield of 58.0%.
Take KKLLKLLKlll: the isolated mass stood at 54.1 mg and the isolated yield was determined as 26.2%.
In the case of KKLLKllklll, the isolated mass came out at 38.0 mg and the isolated yield was 18.4%.
In the case of KkLlKlLkLlL, the isolated mass was 35.6 mg and the isolated yield stood at 17.3%.
In turn, VDKPPYLPRPRPPRRIYNR showed an isolated mass of 111.0 mg and an isolated yield of 34.0%.
Consider kKLLKLLKLLl, for which the isolated mass stood at 77.4 mg and the isolated yield is reported as 37.5%.
The substance kKLLKLLkLLl came in with an isolated mass of 69.0 mg and an isolated yield of 33.5%.
In the same order, the values of kKlLkLlKlLl are 55.6 mg and 27.0%.
The corresponding values for kkLLkLLKLLL are 77.5 mg and 37.6%.
kkLLkLLkLLL: the isolated mass is 102.6 mg and the isolated yield is given as 70.9%.
The corresponding values for kkllkllklll are 22.8 mg and 11.0%.

The values are drawn from paper PMC10714400 (ACS Infectious Diseases, 2023).
